{"sequences": {"note": "By UniProt entry, the sequences of proteins in these tests, tags left out.", "UniProt P08699": "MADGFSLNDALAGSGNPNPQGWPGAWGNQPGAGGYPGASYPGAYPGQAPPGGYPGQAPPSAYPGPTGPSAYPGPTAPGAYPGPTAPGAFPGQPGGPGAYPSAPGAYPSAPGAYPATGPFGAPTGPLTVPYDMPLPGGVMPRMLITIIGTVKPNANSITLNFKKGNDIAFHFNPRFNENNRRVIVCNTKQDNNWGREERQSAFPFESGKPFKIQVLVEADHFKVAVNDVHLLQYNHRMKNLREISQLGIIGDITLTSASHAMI", "UniProt Q8CFN2": "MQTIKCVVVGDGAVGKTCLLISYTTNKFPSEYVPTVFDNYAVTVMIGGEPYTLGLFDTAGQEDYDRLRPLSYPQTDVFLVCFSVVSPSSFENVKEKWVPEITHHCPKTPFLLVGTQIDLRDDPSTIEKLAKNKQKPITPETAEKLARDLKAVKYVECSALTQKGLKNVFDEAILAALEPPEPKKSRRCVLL"}, "source": "paper PMC12568528", "target": "Galectin-3 (rat (endogenous in primary spinal cord neurons)) (UniProt P08699)", "test": "co-IP; whole cell lysate of glutamate-injured rat spinal cord neurons, pre-absorbed with protein A + G agarose beads, incubated overnight at 4°C with the designated antibodies; Western blot; which protein was precipitated is not told", "note": "Results are given in words; binding and its absence hold for the method and conditions named. Binding seen in cells or lysates may run through a third protein. Some entries that bind do so weakly or less than the wild type."}
{"substance": "Cell-division-cycle-42 (from UniProt Q8CFN2 1-191)", "values": [{"measurement": "binding", "value": "binds"}]}
